According to paper PMC7575581:
Results are given in words; binding and its absence hold for the method and conditions named. In cells and extracts the contact can be indirect. Some entries that bind do so weakly or less than the wild type. Tags and fused reporters may be left off the sequences shown. Each block holds one binder with its values, some of them ahead of it.

Target: T1, Importin 13 (human (endogenous in human lung cancer cell lines and HBE)) (UniProt O94829)
T1 sequence: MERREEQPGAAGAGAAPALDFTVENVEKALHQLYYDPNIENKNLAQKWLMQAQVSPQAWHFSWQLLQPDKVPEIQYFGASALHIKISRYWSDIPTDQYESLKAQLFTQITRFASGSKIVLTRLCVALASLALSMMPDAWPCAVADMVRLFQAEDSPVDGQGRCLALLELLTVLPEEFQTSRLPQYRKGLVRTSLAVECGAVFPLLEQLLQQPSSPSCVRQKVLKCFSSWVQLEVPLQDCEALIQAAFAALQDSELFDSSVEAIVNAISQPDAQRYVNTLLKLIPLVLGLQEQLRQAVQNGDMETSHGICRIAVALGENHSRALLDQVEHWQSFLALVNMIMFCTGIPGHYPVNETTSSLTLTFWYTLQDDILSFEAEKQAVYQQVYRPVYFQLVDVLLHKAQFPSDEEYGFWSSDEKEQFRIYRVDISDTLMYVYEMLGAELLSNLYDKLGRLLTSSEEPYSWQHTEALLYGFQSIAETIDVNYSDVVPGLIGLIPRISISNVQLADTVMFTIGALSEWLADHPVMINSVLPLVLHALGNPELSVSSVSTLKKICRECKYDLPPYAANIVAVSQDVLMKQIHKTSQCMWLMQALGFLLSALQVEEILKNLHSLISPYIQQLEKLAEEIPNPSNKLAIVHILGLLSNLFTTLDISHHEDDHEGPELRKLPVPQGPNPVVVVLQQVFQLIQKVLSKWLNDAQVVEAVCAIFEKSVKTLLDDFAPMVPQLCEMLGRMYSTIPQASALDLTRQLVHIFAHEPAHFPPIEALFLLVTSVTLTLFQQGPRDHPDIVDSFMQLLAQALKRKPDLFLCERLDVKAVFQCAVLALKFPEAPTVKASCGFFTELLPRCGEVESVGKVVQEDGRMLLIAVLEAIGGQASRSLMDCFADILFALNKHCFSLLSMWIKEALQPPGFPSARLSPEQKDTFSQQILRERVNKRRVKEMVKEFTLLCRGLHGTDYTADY
Experiment: co-IP; cells transiently transfected with Flag-tagged RFPL3 or truncation mutants, lysed 48 h after transfection; precipitated with anti-IPO13 (endogenous IPO13) or rabbit IgG control; blot with anti-Flag

- binding: binds weakly
B1: RFPL3-Flag-4 (150–317) (domain or fragment, UniProt O75679 150-317)
chain: GLITQNRQDLAERFDVSVCILGSPRFTCGRHYWEVDVGTSTEWDLGVCRESVHCKGKIQLTTELGFWTVSLRDGSRLSASTVPLTFLLVDRKLQRVGIFLDMGMQNVSFFDAESGSHVYTFRSVSAEEPLRPFLAPSIPPNGDQGVLSICPLMNSGTTDAPVRPGEAK

- binding: binds weakly
B2: RFPL3-Flag-6 (235–317) (domain or fragment, UniProt O75679 235-317)
chain: FLLVDRKLQRVGIFLDMGMQNVSFFDAESGSHVYTFRSVSAEEPLRPFLAPSIPPNGDQGVLSICPLMNSGTTDAPVRPGEAK
